PubChem BioAssay AID1259308 | NCATS | 2017

- Aim: 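Knock-downs that increase output of a recombinant reporter protein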 (primary screen)
- Cells: human HEK293 embryonic kidney cells stably expressing firefly luciferase (HEK-CMV-Luc2-Hygro)
- Reagents: single siRNA against human genes, 0.8 pmol siRNA per well
- Duration: 72 h
- Read-out: 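Luciferase light (ONE-Glo) measured on one replicate plate set and viability (CellTiter-Glo) on the other, scaled to a negative control siRNA, with robust z-scores and luciferase per cell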
- Reading the numbers: total luciferase, z-score: higher = more reporter protein produced
- Rule for the call: 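An siRNA counts as active if its total luciferase robust z-score exceeds 3; genes with two or more such siRNAs out of three were retested with fresh siRNAs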
- Meaning of the calls: active = raised luciferase; inactive = no rise
In all, the deposit lists about 59,000 reagents; this is a part drawn at random. Of all reagents, about 1,510 (2.6%) were called active. 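Calls use total luciferase alone and ignore viability, so some active siRNAs may act by altering cell number.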 Further read-outs or replicates are left out here.

total luciferase, z-score, by target gene and reagent
ABCA17P (ATP binding cassette subfamily A member 17, pseudogene): SID160770525 0.148 inactive; SID160770526 -0.291 inactive; SID160770527 0.766 inactive
ESRP1 (epithelial splicing regulatory protein 1): SID160742301 -1.18 inactive; SID160742302 0.506 inactive; SID160742303 -1.98 inactive
OR52B4 (olfactory receptor family 52 subfamily B member 4): SID160758035 1.07 inactive; SID160758036 -0.152 inactive; SID160758037 0.0231 inactive
FBXL14 (F-box and leucine rich repeat protein 14): SID160732525 0.422 inactive; SID160758181 0.499 inactive; SID160758182 -0.278 inactive
TMSB15B (thymosin beta 15B): SID160763871 -0.29 inactive; SID160763872 1.51 inactive; SID160763873 2 inactive
MEIOC (meiosis specific with coiled-coil domain): SID160763144 -1.49 inactive; SID160763145 -0.839 inactive; SID160763146 0.0872 inactive
RGL2 (ral guanine nucleotide dissociation stimulator like 2): SID160715523 1.65 inactive; SID160715524 0.434 inactive; SID160715525 0.151 inactive
LINC00518 (long independently transcribed non-coding RNA 518): SID160761748 -1.57 inactive; SID160761749 1.35 inactive; SID160761750 0.558 inactive

A few values from above:
For “Outcome”, OR52B4 (olfactory receptor family 52 subfamily B member 4) [SID160758036] reads inactive
ESRP1 (epithelial splicing regulatory protein 1) [SID160742303], total luciferase, z-score: -1.98

Continued:
total luciferase, z-score, by target gene and reagent
ANTXRL (ANTXR like): SID160760570 0.43 inactive; SID160760571 -0.394 inactive; SID160760572 1.69 inactive
KCNA3 (potassium voltage-gated channel subfamily A member 3): SID160776110 -0.346 inactive; SID160776111 0.678 inactive; SID160776112 -2.38 inactive
ACYP1 (acylphosphatase 1): SID160778453 1.01 inactive; SID160778464 2.57 inactive; SID160778474 -2 inactive
GRIFIN (galectin-related inter-fiber protein): SID160725358 -0.467 inactive; SID160733354 -1.49 inactive; SID160767461 -0.495 inactive
DCAF8 (DDB1 and CUL4 associated factor 8): SID160739696 -0.612 inactive; SID160739698 0.091 inactive; SID160739699 -0.996 inactive
